# Test results as given in the supplement of paper PMC8728848.
# This is one part of the list.
# B1: Pwp6 (Candida glabrata) (protein)
# chain: MGSSHHHHHHSSGLVPRGSHMASANLPKLTNICQIPDNVKKTSGFKGEIRRIGLFPPGGDYTYLLKFPSTGSTASDTISLTTKPQLSTSGWFPSLFGHTYFIKADLLVYMVAYFVPTETGEYTFKLVNSDDAAVMYVGNPSAFPCGSIDTWPEPRKEDINVCDKISASTKLYMEKGLAYPVRLVWYNGGGDGQFNAQFIDPSGTTHTDWNGYVWQYDACTDCDYK
# Columns and labels:
# Assay in all cases: glycan array binding signal (z-score within array); higher = stronger binding
# Details in all cases: glycan notation: IUPAC condensed, linker removed
# [1] = target: Gal(b1-3)GlcNAc(b1-2)Man(a1-3)[Gal(b1-3)GlcNAc(b1-2)Man(a1-6)]Man(b1-4)GlcNAc(b1-4)[Fuc(a1-6)]GlcNAc
# How it was run: (§1)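 From the Consortium for Functional Glycomics database, 3228 arrays were curated, keeping only those whose protein sequence was available. Binding is given as a within-array Z-score averaged across arrays sharing a protein sequence and across linkers. Negative Z-scores can be read as non-binding.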
# [2] = target: Gal(b1-3)GlcNAc(b1-2)Man(a1-3)[GlcNAc(b1-4)][Gal(b1-3)GlcNAc(b1-2)Man(a1-6)]Man(b1-4)GlcNAc(b1-4)GlcNAc
# How it was run: as §1
# [3] = target: Gal(b1-3)GlcNAc(b1-2)[Gal(b1-3)GlcNAc(b1-6)]Man(a1-6)[Gal(b1-3)GlcNAc(b1-2)Man(a1-3)]Man(b1-4)GlcNAc(b1-4)GlcNAc
# How it was run: as §1
# [4] = target: Gal(b1-3)GlcNAc(b1-3)Gal(b1-3)GlcNAc
# How it was run: as §1
# [5] = target: Gal(b1-3)GlcNAc(b1-3)Gal(b1-4)Glc
# How it was run: as §1
# [6] = target: Gal(b1-3)GlcNAc(b1-3)Gal(b1-4)GlcNAc
# How it was run: as §1
# [7] = target: Gal(b1-3)GlcNAc(b1-3)Gal(b1-4)GlcNAc(b1-2)Man(a1-3)[Gal(b1-3)GlcNAc(b1-3)Gal(b1-4)GlcNAc(b1-2)Man(a1-6)]Man(b1-4)GlcNAc(b1-4)GlcNAc
# How it was run: as §1
# [8] = target: Gal(b1-3)GlcNAc(b1-3)Gal(b1-4)GlcNAc(b1-2)[Gal(b1-3)GlcNAc(b1-3)Gal(b1-4)GlcNAc(b1-6)]Man(a1-6)[Gal(b1-3)GlcNAc(b1-3)Gal(b1-4)GlcNAc(b1-2)Man(a1-3)]Man(b1-4)GlcNAc(b1-4)[Fuc(a1-6)]GlcNAc
# How it was run: as §1
# [9] = target: Gal(b1-3)GlcNAc(b1-3)Gal(b1-4)GlcNAc(b1-3)Gal(b1-4)GlcNAc(b1-2)[Gal(b1-3)GlcNAc(b1-3)Gal(b1-4)GlcNAc(b1-3)Gal(b1-4)GlcNAc(b1-6)]Man(a1-6)[Gal(b1-3)GlcNAc(b1-3)Gal(b1-4)GlcNAc(b1-3)Gal(b1-4)GlcNAc(b1-2)Man(a1-3)]Man(b1-4)GlcNAc(b1-4)[Fuc(a1-6)]GlcNAc
# How it was run: as §1
# [10] = target: Gal(b1-3)GlcNAc(b1-3)Gal(b1-4)GlcNAc(b1-6)[Gal(b1-3)GlcNAc(b1-3)]Gal(b1-4)Glc
# How it was run: as §1
# [11] = target: Gal(b1-3)GlcNAc(b1-3)Gal(b1-4)[Fuc(a1-3)]GlcNAc
# How it was run: as §1
# [12] = target: Gal(b1-3)GlcNAc(b1-3)Gal(b1-4)[Fuc(a1-3)]GlcNAc(b1-6)[Gal(b1-3)GlcNAc(b1-3)]Gal(b1-4)Glc
# How it was run: as §1
# [13] = target: Gal(b1-3)GlcNAc(b1-3)GalNAc
# How it was run: as §1
# [14] = target: Gal(b1-3)GlcNAc(b1-6)Gal(b1-4)GlcNAc
# How it was run: as §1
# [15] = target: Gal(b1-3)GlcNAc(b1-6)GalNAc
# How it was run: as §1
# [16] = target: Gal(b1-3)GlcNAc(b1-6)[Gal(b1-3)]GalNAc
# How it was run: as §1
# Gal(b1-3)GlcNAc6S = target: Gal(b1-3)GlcNAc6S
# How it was run: as §1
# [17] = target: Gal(b1-3)[Fuc(a1-4)]GlcNAc
# How it was run: as §1
# [18] = target: Gal(b1-3)[Fuc(a1-4)]GlcNAc(b1-2)Man
# How it was run: as §1
# [19] = target: Gal(b1-3)[Fuc(a1-4)]GlcNAc(b1-2)Man(a1-3)[Gal(b1-3)[Fuc(a1-4)]GlcNAc(b1-2)Man(a1-6)]Man(b1-4)GlcNAc(b1-4)[Fuc(a1-6)]GlcNAc
# How it was run: as §1
# [20] = target: Gal(b1-3)[Fuc(a1-4)]GlcNAc(b1-3)Gal(b1-3)[Fuc(a1-4)]GlcNAc
# How it was run: as §1
# [21] = target: Gal(b1-3)[Fuc(a1-4)]GlcNAc(b1-3)Gal(b1-4)[Fuc(a1-3)]GlcNAc
# How it was run: as §1
# [22] = target: Gal(b1-3)[Fuc(a1-4)]GlcNAc(b1-6)GalNAc
# How it was run: as §1
# [23] = target: Gal(b1-3)[GlcNAc(b1-6)]GalNAc
# How it was run: as §1
# [24] = target: Gal(b1-3)[Neu5Ac(a2-6)]GalNAc
# How it was run: as §1
# [25] = target: Gal(b1-3)[Neu5Ac(a2-6)]GlcNAc(b1-4)Gal(b1-4)Glc
# How it was run: as §1
# [26] = target: Gal(b1-3)[Neu5Ac(b2-6)]GalNAc
# How it was run: as §1
# Gal(b1-4)Gal = target: Gal(b1-4)Gal
# How it was run: as §1
# [27] = target: Gal(b1-4)GalNAc(a1-3)[Fuc(a1-2)]Gal(b1-4)GlcNAc
# How it was run: as §1
# [28] = target: Gal(b1-4)GalNAc(b1-3)[Fuc(a1-2)]Gal(b1-4)GlcNAc
# How it was run: as §1
# Gal(b1-4)Glc = target: Gal(b1-4)Glc
# How it was run: as §1
# Gal(b1-4)Glc6S = target: Gal(b1-4)Glc6S
# How it was run: as §1
# Gal(b1-4)GlcNAc = target: Gal(b1-4)GlcNAc
# How it was run: as §1
# [29] = target: Gal(b1-4)GlcNAc(a1-6)Gal(b1-4)GlcNAc
# How it was run: as §1
# Gal(b1-4)GlcNAc(b1-2)Man = target: Gal(b1-4)GlcNAc(b1-2)Man
# How it was run: as §1
# [30] = target: Gal(b1-4)GlcNAc(b1-2)Man(a1-3)Man(b1-4)GlcNAc(b1-4)GlcNAc
# How it was run: as §1
# [31] = target: Gal(b1-4)GlcNAc(b1-2)Man(a1-3)[Gal(b1-4)GlcNAc(b1-2)Man(a1-6)]Man(b1-4)GlcNAc(b1-4)GlcNAc
# How it was run: as §1
# [32] = target: Gal(b1-4)GlcNAc(b1-2)Man(a1-3)[Gal(b1-4)GlcNAc(b1-2)Man(a1-6)]Man(b1-4)GlcNAc(b1-4)[Fuc(a1-6)]GlcNAc
# How it was run: as §1
# [33] = target: Gal(b1-4)GlcNAc(b1-2)Man(a1-3)[Gal(b1-4)GlcNAc(b1-2)Man(a1-6)][Gal(b1-4)GlcNAc(b1-4)]Man(b1-4)GlcNAc(b1-4)[Fuc(a1-6)]GlcNAc
# How it was run: as §1
# [34] = target: Gal(b1-4)GlcNAc(b1-2)Man(a1-3)[Gal(b1-4)GlcNAc(b1-2)Man(a1-6)][GlcNAc(b1-4)]Man(b1-4)GlcNAc(b1-4)[Fuc(a1-6)]GlcNAc
# How it was run: as §1
# [35] = target: Gal(b1-4)GlcNAc(b1-2)Man(a1-3)[GlcNAc(b1-2)Man(a1-6)]Man(b1-4)GlcNAc(b1-4)GlcNAc
# How it was run: as §1
# [36] = target: Gal(b1-4)GlcNAc(b1-2)Man(a1-3)[GlcNAc(b1-4)][Gal(b1-4)GlcNAc(b1-2)Man(a1-6)]Man(b1-4)GlcNAc(b1-4)GlcNAc
# How it was run: as §1
# [37] = target: Gal(b1-4)GlcNAc(b1-2)Man(a1-3)[Man(a1-6)]Man(b1-4)GlcNAc(b1-4)GlcNAc
# How it was run: as §1
# [38] = target: Gal(b1-4)GlcNAc(b1-2)Man(a1-6)Man(b1-4)GlcNAc(b1-4)GlcNAc
# How it was run: as §1
# [39] = target: Gal(b1-4)GlcNAc(b1-2)Man(a1-6)[GlcNAc(b1-2)Man(a1-3)]Man(b1-4)GlcNAc(b1-4)GlcNAc
# How it was run: as §1
binder,measurement,setting,value
B1,glycan array binding signal (z-score),[1],-0.261
same,glycan array binding signal (z-score),[2],0.054
same,glycan array binding signal (z-score),[3],0.538
same,glycan array binding signal (z-score),[4],-0.044
same,glycan array binding signal (z-score),[5],-0.487
same,glycan array binding signal (z-score),[6],-0.208
same,glycan array binding signal (z-score),[7],0.354
same,glycan array binding signal (z-score),[8],2.53
same,glycan array binding signal (z-score),[9],1.06
same,glycan array binding signal (z-score),[10],0.772
same,glycan array binding signal (z-score),[11],-0.59
same,glycan array binding signal (z-score),[12],-0.346
same,glycan array binding signal (z-score),[13],-0.228
same,glycan array binding signal (z-score),[14],-0.893
same,glycan array binding signal (z-score),[15],-0.063
same,glycan array binding signal (z-score),[16],-0.167
same,glycan array binding signal (z-score),Gal(b1-3)GlcNAc6S,-0.52
same,glycan array binding signal (z-score),[17],-0.676
same,glycan array binding signal (z-score),[18],-0.152
same,glycan array binding signal (z-score),[19],-0.018
same,glycan array binding signal (z-score),[20],0.836
same,glycan array binding signal (z-score),[21],-0.441
same,glycan array binding signal (z-score),[22],1.75
same,glycan array binding signal (z-score),[23],-0.459
same,glycan array binding signal (z-score),[24],0.134
same,glycan array binding signal (z-score),[25],-0.455
same,glycan array binding signal (z-score),[26],-0.465
same,glycan array binding signal (z-score),Gal(b1-4)Gal,-0.05
same,glycan array binding signal (z-score),[27],-0.17
same,glycan array binding signal (z-score),[28],-0.651
same,glycan array binding signal (z-score),Gal(b1-4)Glc,-0.681
same,glycan array binding signal (z-score),Gal(b1-4)Glc6S,-0.582
same,glycan array binding signal (z-score),Gal(b1-4)GlcNAc,-0.877
same,glycan array binding signal (z-score),[29],-0.631
same,glycan array binding signal (z-score),Gal(b1-4)GlcNAc(b1-2)Man,-0.45
same,glycan array binding signal (z-score),[30],0.112
same,glycan array binding signal (z-score),[31],0.039
same,glycan array binding signal (z-score),[32],-0.089
same,glycan array binding signal (z-score),[33],-0.334
same,glycan array binding signal (z-score),[34],-0.658
same,glycan array binding signal (z-score),[35],0.404
same,glycan array binding signal (z-score),[36],-0.367
same,glycan array binding signal (z-score),[37],0.558
same,glycan array binding signal (z-score),[38],-0.002
same,glycan array binding signal (z-score),[39],0.606

# Some of the entries so far, tab-delimited.
binder	measurement	setting	value
B1	glycan array binding signal (z-score)	[3]	0.538
same	glycan array binding signal (z-score)	[4]	-0.044
same	glycan array binding signal (z-score)	[5]	-0.487
same	glycan array binding signal (z-score)	[6]	-0.208
same	glycan array binding signal (z-score)	[7]	0.354
same	glycan array binding signal (z-score)	[8]	2.53
same	glycan array binding signal (z-score)	[9]	1.06
same	glycan array binding signal (z-score)	[10]	0.772
same	glycan array binding signal (z-score)	[11]	-0.59
same	glycan array binding signal (z-score)	[12]	-0.346
same	glycan array binding signal (z-score)	[13]	-0.228
same	glycan array binding signal (z-score)	[14]	-0.893
same	glycan array binding signal (z-score)	[15]	-0.063
